Results as given in paper PMC12973532.
These are yes or no findings as the source states them, for the method shown. Binding seen in cells or lysates may run through a third protein. These calls come from enrichment with a bait or labelling near it, and not all partners need be listed.

The chains behind the UniProt entries cited, without tags or fusion partners. Residues count along the entry.
UniProt O00264: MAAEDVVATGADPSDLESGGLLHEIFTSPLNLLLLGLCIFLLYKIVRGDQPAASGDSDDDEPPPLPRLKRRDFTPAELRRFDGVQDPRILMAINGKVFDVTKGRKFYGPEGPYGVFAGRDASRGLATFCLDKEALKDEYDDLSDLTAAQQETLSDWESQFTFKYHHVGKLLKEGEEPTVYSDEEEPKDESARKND
UniProt O35379: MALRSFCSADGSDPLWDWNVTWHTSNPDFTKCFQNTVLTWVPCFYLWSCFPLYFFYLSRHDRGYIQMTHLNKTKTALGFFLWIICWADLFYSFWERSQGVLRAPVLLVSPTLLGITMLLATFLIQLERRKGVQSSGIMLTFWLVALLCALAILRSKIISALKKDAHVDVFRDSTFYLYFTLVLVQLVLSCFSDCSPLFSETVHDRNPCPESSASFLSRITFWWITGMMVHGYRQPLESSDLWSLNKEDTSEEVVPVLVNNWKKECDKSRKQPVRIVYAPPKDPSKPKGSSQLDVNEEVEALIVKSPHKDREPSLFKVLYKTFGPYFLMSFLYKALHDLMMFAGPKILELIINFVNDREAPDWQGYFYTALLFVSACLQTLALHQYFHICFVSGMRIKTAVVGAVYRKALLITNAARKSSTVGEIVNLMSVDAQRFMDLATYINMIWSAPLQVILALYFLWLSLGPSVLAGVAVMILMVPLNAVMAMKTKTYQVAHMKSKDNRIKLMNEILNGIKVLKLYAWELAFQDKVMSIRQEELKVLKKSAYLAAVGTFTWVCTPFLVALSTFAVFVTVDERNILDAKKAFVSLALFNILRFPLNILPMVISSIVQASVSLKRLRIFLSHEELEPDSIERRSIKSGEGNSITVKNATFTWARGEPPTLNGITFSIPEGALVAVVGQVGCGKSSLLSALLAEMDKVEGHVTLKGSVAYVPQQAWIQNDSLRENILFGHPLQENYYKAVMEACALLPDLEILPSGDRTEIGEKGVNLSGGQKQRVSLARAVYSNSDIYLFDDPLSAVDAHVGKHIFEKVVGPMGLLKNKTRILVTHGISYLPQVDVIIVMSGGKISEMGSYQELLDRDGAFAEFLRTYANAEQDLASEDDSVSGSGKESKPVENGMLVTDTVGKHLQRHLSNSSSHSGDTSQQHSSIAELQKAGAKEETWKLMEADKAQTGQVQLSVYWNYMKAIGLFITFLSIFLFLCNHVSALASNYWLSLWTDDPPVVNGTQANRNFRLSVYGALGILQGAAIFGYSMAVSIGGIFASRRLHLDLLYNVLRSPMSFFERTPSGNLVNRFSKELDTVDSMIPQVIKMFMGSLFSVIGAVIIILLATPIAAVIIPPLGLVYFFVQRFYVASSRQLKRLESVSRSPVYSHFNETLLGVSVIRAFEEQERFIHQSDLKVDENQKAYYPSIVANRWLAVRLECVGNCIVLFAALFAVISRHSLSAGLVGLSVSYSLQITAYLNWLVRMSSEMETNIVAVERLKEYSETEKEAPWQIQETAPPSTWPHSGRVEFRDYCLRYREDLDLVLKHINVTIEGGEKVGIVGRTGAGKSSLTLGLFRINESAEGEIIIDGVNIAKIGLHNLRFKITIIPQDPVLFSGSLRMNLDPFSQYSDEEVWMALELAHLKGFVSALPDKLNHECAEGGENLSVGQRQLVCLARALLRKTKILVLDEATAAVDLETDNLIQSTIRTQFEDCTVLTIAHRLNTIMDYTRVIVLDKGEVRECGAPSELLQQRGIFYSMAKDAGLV
UniProt Q9D5T0: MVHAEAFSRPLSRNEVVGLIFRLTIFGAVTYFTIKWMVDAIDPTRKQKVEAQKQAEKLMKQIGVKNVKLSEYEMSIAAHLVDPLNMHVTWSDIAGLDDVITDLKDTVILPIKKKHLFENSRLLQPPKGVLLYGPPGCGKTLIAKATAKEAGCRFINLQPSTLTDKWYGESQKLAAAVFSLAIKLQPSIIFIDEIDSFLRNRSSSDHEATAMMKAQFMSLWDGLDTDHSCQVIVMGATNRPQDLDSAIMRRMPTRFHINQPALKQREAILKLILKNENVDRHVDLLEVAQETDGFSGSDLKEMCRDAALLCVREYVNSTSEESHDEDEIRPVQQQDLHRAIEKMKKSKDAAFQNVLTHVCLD
UniProt Q61102, residues 23-752: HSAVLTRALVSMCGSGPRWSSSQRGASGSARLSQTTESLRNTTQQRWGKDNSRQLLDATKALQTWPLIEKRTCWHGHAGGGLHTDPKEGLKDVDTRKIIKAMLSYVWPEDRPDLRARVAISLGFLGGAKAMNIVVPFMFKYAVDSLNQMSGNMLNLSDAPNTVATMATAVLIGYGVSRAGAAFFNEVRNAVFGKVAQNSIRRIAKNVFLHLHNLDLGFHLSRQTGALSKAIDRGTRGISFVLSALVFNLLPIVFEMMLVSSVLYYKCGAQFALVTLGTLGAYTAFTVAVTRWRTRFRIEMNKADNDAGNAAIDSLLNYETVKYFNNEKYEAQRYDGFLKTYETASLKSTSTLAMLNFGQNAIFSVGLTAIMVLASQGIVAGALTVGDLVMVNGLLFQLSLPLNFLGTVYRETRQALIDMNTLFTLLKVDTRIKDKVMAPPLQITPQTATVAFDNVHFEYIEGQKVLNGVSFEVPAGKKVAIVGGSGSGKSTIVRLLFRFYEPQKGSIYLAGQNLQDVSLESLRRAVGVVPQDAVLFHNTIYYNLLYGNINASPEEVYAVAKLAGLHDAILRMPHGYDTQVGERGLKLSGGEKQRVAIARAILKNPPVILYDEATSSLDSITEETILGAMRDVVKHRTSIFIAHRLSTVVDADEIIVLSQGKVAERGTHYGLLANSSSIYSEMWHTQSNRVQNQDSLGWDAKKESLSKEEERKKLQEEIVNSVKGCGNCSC
UniProt O55143: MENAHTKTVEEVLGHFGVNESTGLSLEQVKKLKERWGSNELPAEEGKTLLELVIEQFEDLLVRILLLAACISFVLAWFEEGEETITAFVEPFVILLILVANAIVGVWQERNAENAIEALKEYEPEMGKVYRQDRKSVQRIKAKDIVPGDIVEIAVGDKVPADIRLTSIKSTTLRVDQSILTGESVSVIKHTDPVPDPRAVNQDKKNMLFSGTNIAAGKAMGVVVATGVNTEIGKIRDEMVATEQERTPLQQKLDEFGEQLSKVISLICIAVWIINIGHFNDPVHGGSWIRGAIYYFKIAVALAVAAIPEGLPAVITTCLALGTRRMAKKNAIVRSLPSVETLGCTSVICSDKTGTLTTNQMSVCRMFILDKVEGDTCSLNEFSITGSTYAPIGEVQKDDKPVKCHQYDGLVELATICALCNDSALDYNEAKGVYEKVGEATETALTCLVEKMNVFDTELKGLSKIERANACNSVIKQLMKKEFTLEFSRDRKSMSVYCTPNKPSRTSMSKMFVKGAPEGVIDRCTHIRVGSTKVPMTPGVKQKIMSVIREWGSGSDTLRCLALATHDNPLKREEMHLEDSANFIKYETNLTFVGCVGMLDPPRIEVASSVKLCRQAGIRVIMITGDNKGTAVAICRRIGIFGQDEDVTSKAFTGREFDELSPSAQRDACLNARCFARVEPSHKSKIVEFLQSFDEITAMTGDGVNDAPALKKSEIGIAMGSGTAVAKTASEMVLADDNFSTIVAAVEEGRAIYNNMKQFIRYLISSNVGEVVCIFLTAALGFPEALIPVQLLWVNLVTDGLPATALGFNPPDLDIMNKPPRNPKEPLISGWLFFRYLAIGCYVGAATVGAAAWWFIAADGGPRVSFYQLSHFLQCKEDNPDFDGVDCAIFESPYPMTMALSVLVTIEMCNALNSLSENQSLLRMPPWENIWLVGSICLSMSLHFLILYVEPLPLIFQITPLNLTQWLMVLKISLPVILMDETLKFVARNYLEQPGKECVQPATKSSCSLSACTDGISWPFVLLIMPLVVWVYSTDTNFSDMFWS
UniProt P61620: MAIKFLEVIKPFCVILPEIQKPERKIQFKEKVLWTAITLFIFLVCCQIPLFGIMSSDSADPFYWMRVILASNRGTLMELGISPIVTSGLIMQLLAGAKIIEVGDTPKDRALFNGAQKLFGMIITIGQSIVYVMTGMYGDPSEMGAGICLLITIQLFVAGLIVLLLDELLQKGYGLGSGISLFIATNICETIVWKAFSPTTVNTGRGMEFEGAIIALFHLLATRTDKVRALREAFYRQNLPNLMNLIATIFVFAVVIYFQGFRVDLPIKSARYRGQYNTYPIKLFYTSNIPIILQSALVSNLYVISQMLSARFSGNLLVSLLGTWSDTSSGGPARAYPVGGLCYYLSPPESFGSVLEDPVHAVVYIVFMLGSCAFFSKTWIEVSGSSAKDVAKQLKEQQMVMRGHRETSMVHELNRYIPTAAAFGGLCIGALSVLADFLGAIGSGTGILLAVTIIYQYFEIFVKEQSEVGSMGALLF

target: FLAG-tagged PGRMC1 (human progesterone receptor membrane component 1) (human) (UniProt O00264); assay: affinity purification with mass spectrometry; FLAG-PGRMC1 (human) stably expressed in murine MEL cells as bait; isolated mitochondria lysed, affinity purification by FLAG; prey filtered with CRAPome, fold-change threshold 1.5; empty-vector cells as control

| Molecule | binding |
| --- | --- |
| ABCC1 (mouse) (from UniProt O35379 1-1528) | binds |
| ATAD1 (mouse) (from UniProt Q9D5T0 1-361) | binds |
| ABCB7 (mouse) (from UniProt Q61102 23-752) | binds |
| ATP2A2 (mouse) (from UniProt O55143 1-1044) | binds |
| ABCB10 (mouse) (protein, UniProt Q9JI39 83-715) AGPRAAHPLFARLQGAAATGVRDLGNDSQRRPAATGRSEVWKLLGLVRPERGRLSAAVGFLAVSSVITMSAPFFLGRIIDVIYTNPSEGYGDSLTRLCAVLTCVFLCGAAANGIRVYLMQSSGQSIVNRLRTSLFSSILRQEVAFFDKTRTGELINRLSSDTALLGRSVTENLSDGLRAGAQASVGVGMMFFVSPSLATFVLSVVPPISVLAVIYGRYLRKLSKATQDSLAEATQLAEERIGNIRTIRAFGKEMTEVEKYTGRVDQLLQLAQKEALARAGFFGAAGLSGNLIVLSVLYKGGLLMGSAHMTVGELSSFLMYAFWVGLSIGGLSSFYSELMKGLGAGGRLWELLERQPRLPFNEGMVLDEKTFQGALEFRNVHFTYPARPEVSVFQDFSLSIPSGSVTALVGPSGSGKSTVVSLLLRLYDPNSGTVSLDGHDIRQLNPVWLRSKIGTVSQEPVLFSCSVAENIAYGADNLSSVTAQQVERAAEVANAAEFIRSFPQGFDTVVGEKGILLSGGQKQRIAIARALLKNPKILLLDEATSALDAENEHLVQEALDRLMEGRTVLIIAHRLSTIKNANFVAVLDHGKICEHGTHEELLLKPNGLYRKLMNKQSFLSYNGAEQFLEPARA | binds |
| CCDC47 (mouse) (protein, UniProt Q9D024 21-483) KFDDFEDEEDIVEYDDNDFAEFEDVMEDSVTESPQRVISTEDDEDEATVELEGQDESQEGDFEDADTQEGDTESEPYDDEEFEGYEDKPDTSSNKNKDPITIVDVPAHLQNSWESYYLEILMVTGLLAYIMNYIIGKNKNSRLAQAWFNSHRELLESNFTLVGDDGTNKEATSTGKLNQENEHIYNLWCSGRVCCEGMLIQLRFLKRQDLLNVLARMMRPVSDQVQIKVTMNDEDMDTYVFAVGTRKALLRLQKEMQDLSEFCSDKPKSGAKYGLPDSLAILSEMGEVTEGMMDTKMVHFLTHYADKIESVHFSDQFSGPKIMQEEGQPLKLPDTKRTLLFTFNVPGSGNTYPKDMESLLPLMNMVIYSIDKAKKFRLNREGKQKADKNRARVEENFLKLTHVQRQEAAQSRREEKKRAEKERIMNEEDPEKQRRLEEAALRREQKKLEKKQMKMKQIKVKAM | binds |
| APOOOL (mouse) (protein, UniProt Q78IK4 28-265) EEEPKKQLVRPDQLPIYTAPPLHSKYVEEQPGNLQRGFASIRTTTVYYIGWCKSIYLFMKNGVMDTVQFGKDAYVYLKNPPQDFLPKMGVITASGLAGLLSARKGSRFKKIAYPLGLATLGATVCYPAQSVIIAKITGKKAYATSQQIFQAIKSLWTQKSENESLPEPKEESKEGRSDEIHASLPDLKHSVSLPKELASATVIKSESTSGTTQFIPDPKLMDHGQSHPDDKDMYSTRS | binds |
| DNAJC11 (mouse) (protein, UniProt Q5U458 1-559) MATALSEEELDNEDYYSLLNVRREASSEELKAAYRRLCMLYHPDKHRDPELKSQAERLFNLVHQAYEVLSDPQTRAIYDIYGKRGLEMEGWEVVERKRTPAEIREEFERLQREREERRLQQRTNPKGTISVGVDATDLFDRYDEEYEDVSGSGFPQIEINKMHISQSIEAPLTATDTAILSGSLSTQNGNGGGSVNFALRRVTSAKGWGELEFGAGDLQGPLFGLKLFRNLTPRCFVTTNCALQFSSRGIRPGLTTVLARNLDKNTVGYLQWRWGIQSAMNTSIVRDTKTCHFTVALQLGIPHSFALISYQHKFQDDDQTRVKGSLKAGFFGTIVEYGAERKISRHSVLGAAVSIGVPQGVSLKVKLNRASQTYFFPIHLTDQLLPSAVFYATVGPLVVYLAVHRLIIRPYLRAQKEKELEKQRENTASDILQKKQEAEAAVRLMQESVRRIIEAEESRMGLIIVNAWYGKFVNDKSRKNEKVKVIDVTVPLQCLVKDSKLILTEASKAGLPGFYDPCVGEEKSLRVLYQFRGVLHQVMVPDSEALRIPKQSHRIDTDG | binds |
| HM13 (mouse) (protein, UniProt Q9D8V0 1-378) MDSAVSDPHNGSAEAGTPANGTTRPPSTPEGIALAYGSLLLMALLPIFFGALRSVRCARGKSSSDMPETITSRDAARFPIIASCTLLGLYLFFKIFSQEYINLLLSMYFFVLGILALSHTISPFMNKFFPANFPNRQYQLLFTQGSGENKEEIINYEFDTKDLVCLGLSSVVGVWYLLRKHWIANNLFGLAFSLNGVELLHLNNVSTGCILLGGLFIYDIFWVFGTNVMVTVAKSFEAPIKLVFPQDLLEKGLEADNFAMLGLGDIVIPGIFIALLLRFDISLKKNTHTYFYTSFAAYIFGLGLTIFIMHIFKHAQPALLYLVPACIGFPVLVALAKGEVAEMFSYEESNPKDPAAETESKEESTEASASKRLEKKEK | binds |
| CISD2 (mouse) (protein, UniProt Q9CQB5 1-135) MVLDSVARIVKVQLPAYLKQLPVPDSITGFARLTVSDWLRLLPFLGVLALLGYLAVRPFFPKKKQQKDSLINLKIQKENPKVVNEINIEDLCLTKAAYCRCWRSKTFPACDGSHNKHNELTGDNVGPLILKKKEV | binds |

Now from value to molecule:

| binding | Molecule |
| --- | --- |
| binds | SEC61A1 (mouse) (from UniProt P61620 1-476) |
| binds | heme oxygenase 2 (mouse) (protein, UniProt O70252 1-315) MSSEVETSEGVDESEKNSMAPEKENHTKMADLSELLKEGTKEAHDRAENTQFVKDFLKGNIKKELFKLATTALYFTYSALEEEMDRNKDHPAFAPLYFPTELHRKAALIKDMKYFFGENWEEQVKCSEAAQKYVDRIHYVGQNEPELLVAHAYTRYMGDLSGGQVLKKVAQRALKLPSTGEGTQFYLFEHVDNAQQFKQFYRARMNALDLNLKTKERIVEEANKAFEYNMQIFSELDQAGSMLARETLEDGLPVHDGKGDIRKCPFYAAQPDKGTLGGSNCPFQTTVAVLRKPSLQLILAASVALVAGLLAWYYM |
| binds | SEC63 (mouse) (protein, UniProt Q8VHE0 1-760) MAGQQFQYDDSGNTFFYFLTSFVGLIVIPATYYLWPRDQNAEQIRLKNIRKVYGRCMWYRLRLLKPQPNIIPTVKKIVLLAGWALFLFLAYKVSKTDREYQEYNPYEVLNLDPGATVAEIKKQYRLLSLKYHPDKGGDEVMFMRIAKAYAALTDEESRKNWEEFGNPDGPQATSFGIALPAWIVDQKNSILVLLVYGLAFMVILPVVVGSWWYRSIRYSGDQILIRTTQIYTYFVYKTRNMDMKRLIMVLAGASEFDPQYNKDSTSRPTDNILIPQLIREIGSINLKKNEPPLTCPYSLKARVLLLSHLARMKIPETLEEDQQFMLKKCPALLQEMVNVICQLIIMARSREEREFRAPTLASLENCMKLSQMAVQGLQQFKSPLLQLPHIEEDNLRRVSNHKKYKIKTIQDLVSLKESDRHSLLHFLEDEKYEEVMAVLGSFPYVTMDIKSQVLDDEDSNNITVGSLVTVLVKLTRQTMAEVFEKEQSICAAEEQPTEDGQSDANKIKAKGGWQQKNKGPKKMPKSKKKKPLKKKPTTVPLPQAKQQKQKQANGVVGSEAAIKEEEDDISDKGSDSEEEETNRDSQSEKEDGSDRESDREQDEKQSKDDEAEWQELQQSIQRKERALLETKSKITHPVYSLYFPEEKQEWWWLYIADRKEQTLISMPYHVCTLKDTEEVELKFPAPGKPGNYQYTVFLRSDSYMGLDQIKPLKLEVHEAKPVPENHPQWDTAIEGDEDQEDSEGFEDSFEEEEEEEEGGD |
| binds | MBOAT7 (mouse) (protein, UniProt Q8CHK3 1-473) MTPEEWTYLMVLLISIPVGFLFKKAGPGLKRWGAAAVGLGLTLFTCGPHSLHSLITILGTWALIQAQPCSCHALALAWTFSYLLFFRALSLLGLPTPTPFTNAVQLLLTLKLVSLASEVQDLHLAQRKEIASGFHKEPTLGLLPEVPSLMETLSYSYCYVGIMTGPFFRYRTYLDWLEQPFPEAVPSLRPLLRRAWPAPLFGLLFLLSSHLFPLEAVREDAFYARPLPTRLFYMIPVFFAFRMRFYVAWIAAECGCIAAGFGAYPVAAKARAGGGPTLQCPPPSSPEIAASLEYDYETIRNIDCYGTDFCVRVRDGMRYWNMTVQWWLAQYIYKSAPFRSYVLRSAWTMLLSAYWHGLHPGYYLSFMTIPLCLAAEGYLESALRRHLSPGGQKAWDWVHWFLKMRAYDYMCMGFVLLSMADTLRYWASIYFWVHFLALACLGLGLVLGGGSPSKRKTPSQATSSQAKEKLREE |
| binds | SAMM50 (mouse) (protein, UniProt Q8BGH2 1-469) MGTVHARSLEPLPSSGTDFGALGEEAEFVEVEPEAKQEILENKDVVVQHVHFDGLGRTKDDIIICEIGEVFKAKNLIEVMRRSHEAREKLLRLGIFRQVDVLIDTCHGEDALPNGLDVTFEVTELRRLTGSYNTMVGNNEGSMVLGLKLPNLLGRAEKVTFQFSYGTKETSYGLSFFKPQPGNFERNFSVNLYKVTGQFPWSSLRETDRGVSAEYSFPLWKTSHTVKWEGVWRELGCLSRTASFAVRKESGHSLKSSLSHAMVIDSRNSSILPRRGALFKVNQELAGYTGGDVSFIKEDFELQLNKPLALDSVFSTSLWGGMLVPIGDKPSSIADRFYLGGPTSVRGFSMHSIGPQSEGDYLGGEAYWAGGLHLYTPLPFRPGQGGFGELFRTHFFLNAGNLCNLNYGEGPKAHIRKLAECIRWSYGAGVVLRLGNIARLELNYCIPMGVQGGDRICDGVQFGAGIRFL |
| binds | MFRN2 (mouse) (protein, UniProt Q8R0Z5 1-364) MELEGRSAGGVAGGPAAGPGRSPGESALLDGWLQRGVGRGAGGGEAGAYQPPVRLDPESGPEYEALPAGATVTTHMVAGAVAGILEHCVMYPIDCVKTRMQSLQPDPAARYRNVLEALWRIMRTEGLWRPMRGLNVTATGAGPAHALYFACYEKLKKTLSDVIHPGGNSHIANGAAGCVATLLHDAAMNPAEVVKQRMQMYNSPYHRVTDCVRAVWQNEGAGAFYRSYTTQLTMNVPFQAIHFMTYEFLQEHFNPQRRYNPSSHVLCGACAGAVAAAATTPLDVCKTLLNTQESLALNSNITGHITGMASAFRTVYQVGGVTAYFRGVQARVIYQIPSTAIAWSVYEFFKYLITKRQEEWRAGK |
| binds | progesterone receptor membrane protein 2 (mouse) (protein, UniProt Q80UU9 1-217) MAAGDGDVKLSTLGSGGESGGDGSPGGAGATAARSSWVAALLATGGEMLLNVALVALVLLGAYRLWVRWGRRGLCSGPGAGEESPAATLPRMKKRDFSLEQLRQYDGARTPRILLAVNGKVFDVTKGSKFYGPAGPYGIFAGRDASRGLATFCLDKDALRDEYDDLSDLNAVQMESVREWEMQFKEKYDYVGRLLKPGEEPSEYTDEEDTKDHSKQD |
| binds | SLC25A11 (mouse) (protein, UniProt Q9CR62 1-314) MAATASPGAGRMDGKPRTSPKSVKFLFGGLAGMGATVFVQPLDLVKNRMQLSGEGAKTREYKTSFHALTSILKTEGLKGIYTGLSAGLLRQATYTTTRLGIYTVLFERLTGADGTPPGFLLKALIGMTAGATGAFVGTPAEVALIRMTADGRLPADQRRGYKNVFNALVRIAREEGVPTLWRGCIPTMARAVVVNAAQLASYSQSKQFLLDSGYFSDNILCHFCASMISGLVTTAASMPVDIVKTRIQNMRMIDGKPEYKNGLDVLLKVVRYEGFFSLWKGFTPYYARLGPHTVLTFIFLEQMNKAYKRLFLSG |
